The experiment deals with Salmonella enterica serovar Typhimurium SL1344. The experiment can be described thus: bacterial growth OD600 after 18 h with compound and polymyxin B; higher = more bacterial growth (less inhibition). As to conditions: 50 µM, Mueller-Hinton broth.

The other results are listed elsewhere or left out. These are raw signals, not scaled to a control.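 In the initial screen, polymyxin B was used at a concentration that permeabilizes Salmonella's outer membrane but not its inner membrane. Maximum growth was set by DMSO wells with or without polymyxin B. Since plates varied, data were ranked per plate, and compounds giving the lowest OD600 advanced as hits.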

The values below come from the supplement of paper PMC12889115.

With `CCNc1ccc(C(=O)N2CCC(Oc3cccnc3)CC2)cn1`, under “polymyxin B 1 µg/mL”, the “bacterial growth OD600” value was 0.899.
For `CCCN(CC1CC1)C(=O)c1cc(NC(=O)COC)c2c(c1)ncn2CCc1ccccc1`, the “bacterial growth OD600” value (polymyxin B 0.75 µg/mL) was 0.798.
For the compound `CCc1ccc(CN2CCCC(CNC(=O)c3cccc(OC)c3OC)C2)cc1` (stereo unspecified), the “bacterial growth OD600” value (polymyxin B 1 µg/mL) was determined as 0.834.
The same measure, in the same setting: the figure for `O=C(NCc1ccccc1F)c1cc(CN2CCOCC2)on1` is 0.948; for `CC(C)NC(=O)C1CCC(=O)N(CCc2cccc(F)c2)C1` (stereo unspecified) it is 0.935; for `CN(CCc1cn[nH]c1)C(=O)CC(c1ccccc1)c1ccc(Cl)cc1` (stereo unspecified) it is 0.606.
Turning to `CN(C(=O)Cn1nnnc1CN1CCOCC1)C1CCCc2ccccc21` (stereo unspecified), the “bacterial growth OD600” value (polymyxin B 0.75 µg/mL) amounted to 0.839.
Same read-out and setting: the figure for `CC1CCN(C(=O)CN2Cc3ccccc3OC(c3ccccc3F)C2)CC1` (stereo unspecified) is 0.006.
For `OC1CCCN(c2ncccc2CNC2CSCCSC2)C1` (stereo unspecified), the “bacterial growth OD600” value (polymyxin B 1 µg/mL) turned out to be 0.992.
Still for that read-out and setting: the figure for `CCCC(=O)N1CCC2(CCCN(Cc3cc(OC)ccc3F)C2=O)C1` (stereo unspecified) is 0.769.
Regarding `CC1(C)Cc2nc(C(C)(C)C)ncc2C(NC(=O)CCCn2cncn2)C1` (stereo unspecified), the “bacterial growth OD600” value (polymyxin B 0.75 µg/mL) was determined as 0.765.
As to `CSCCNCc1c(C(=O)N(C)CCc2ccccc2)nc2sccn12`, the “bacterial growth OD600” value (polymyxin B 1 µg/mL) was determined as 0.722.
For `COC(=O)c1c(S(=O)(=O)NCc2ccccc2)sc2c1CCN(C(=O)c1ccccc1)C2`, where the note is “polymyxin B 0.75 µg/mL”, the “bacterial growth OD600” value turned out to be 0.957.
Take `O=C(c1ccc(N2CCCCCCC2)nc1)N1CCCN(c2ncccn2)CC1`: the “bacterial growth OD600” value (polymyxin B 1 µg/mL) turned out to be 0.891.
The same measure, in the same setting: with `O=C(CN1CCCCC1=O)NC1CCCc2c1cnn2-c1ccc(F)cc1F` (stereo unspecified) the figure was 0.818.
In the case of `CCN1CCN(C2(C(=O)NCCc3ccccc3F)Cc3ccccc3C2)CC1`, for the setting “polymyxin B 0.75 µg/mL”, the “bacterial growth OD600” value stood at 0.787.
The same measure, in the same setting: the figure for `Cc1nc(C)c(C(=O)N2CCC(C3(Cc4ccc(F)cc4)NC(=O)N(CC4CC4)C3=O)CC2)s1` (stereo unspecified) is 0.808; for `COCCNc1nc(CN2CCCCC2C(=O)OC)nc2c(C)cccc12` (stereo unspecified) it is 0.85.
With `O=C(NCc1ccccc1F)c1ccc(OC2CCN(C(=O)C3CC3)CC2)cc1`, the “bacterial growth OD600” value (polymyxin B 1 µg/mL) was 1.15.
Same read-out and setting: with `COc1cccc(N2CCN(C(=O)C3CCC(=O)N(C4CC4)C3)CC2=O)c1` (stereo unspecified) the figure was 0.924.
The same measure, in the same setting: the figure for `Cn1cc(CN2CCC(Oc3ccc(C(=O)NCc4ccccn4)cc3)CC2)cn1` is 0.976.
With `Cc1ncc2c(c1CNC(=O)CN1CCCCC1)CCN(C(=O)c1ccc(-c3ccco3)cc1)C2`, the “bacterial growth OD600” value (polymyxin B 0.75 µg/mL) was 0.81.
For `CC(=O)c1cc(CN2CCCC(N3CCN(c4cccc(C(F)(F)F)c4)CC3)C2)cs1` (stereo unspecified), the “bacterial growth OD600” value (polymyxin B 1 µg/mL) is 0.801.
Same read-out and setting: with `CC1CCN(c2ccc(C(=O)N3CCC(Cn4cccn4)CC3)cn2)CC1` the figure was 0.864.
In the case of `Cc1ccccc1CCC1CCCN(C(=O)C2CCN(C(C)C)CC2)C1` (stereo unspecified), the “bacterial growth OD600” value (polymyxin B 0.75 µg/mL) is 0.007.
On to `Cc1cccc2nc(CNC(=O)c3cc(COc4ccc(F)cc4F)on3)cn12`, for which the “bacterial growth OD600” value (polymyxin B 0.75 µg/mL) was found to be 0.722.
The same measure, in the same setting: the figure for `CCn1nc(C)c(CNC(=O)CN2Cc3ccccc3OC(c3ccsc3)C2)c1C` (stereo unspecified) is 0.876.
On to `CN(CCc1cnn(C)c1)C(=O)c1cc(COc2ccc3c(c2)OCO3)[nH]n1`, for which the “bacterial growth OD600” value (polymyxin B 1 µg/mL) came to 0.89.
For the compound `Cc1occc1C(=O)N(C)C(Cc1ccccc1)C1CCN(C(=O)c2[nH]nc3c2CCCC3)CC1` (stereo unspecified), the “bacterial growth OD600” value (polymyxin B 0.75 µg/mL) is 0.858.
`COc1ccc(OCc2cc(C(=O)NC(C)Cc3ccccn3)no2)c(Cl)c1` (stereo unspecified): under “polymyxin B 1 µg/mL”, the “bacterial growth OD600” value was found to be 0.73.
Take `COc1ccc(CCC(=O)N2CCC(C3(CC(C)C)NC(=O)N(Cc4cccs4)C3=O)CC2)cc1` (stereo unspecified): the “bacterial growth OD600” value (polymyxin B 0.75 µg/mL) was determined as 0.765.
